From paper PMC7819943, “Rice protein-binding microarrays: a tool to detect cis-acting elements near promoter regions in rice”
This is one part of the list.

What follows are sequences tested against T1, OsSMF1 (Oryza sativa, UniProt Q6ZLB0 1-436) (assay: protein-binding microarray (RPBM); PBS, 2% BSA, 51.3 ng/ul salmon testes DNA, 50 uM zinc acetate, 200 nM TF, 25 C, 1 h; high values mean tight binding). Conditions: protein: recombinant; tags: N-terminal polyhistidine and DsRed monomer fusion (pET32a); chain copies: 2; label: CyDye5-dUTP incorporated in the synthesized complementary strand; 3' TTTTT single-stranded linker to array surface; dsDNA, one strand shown.
T1 sequence: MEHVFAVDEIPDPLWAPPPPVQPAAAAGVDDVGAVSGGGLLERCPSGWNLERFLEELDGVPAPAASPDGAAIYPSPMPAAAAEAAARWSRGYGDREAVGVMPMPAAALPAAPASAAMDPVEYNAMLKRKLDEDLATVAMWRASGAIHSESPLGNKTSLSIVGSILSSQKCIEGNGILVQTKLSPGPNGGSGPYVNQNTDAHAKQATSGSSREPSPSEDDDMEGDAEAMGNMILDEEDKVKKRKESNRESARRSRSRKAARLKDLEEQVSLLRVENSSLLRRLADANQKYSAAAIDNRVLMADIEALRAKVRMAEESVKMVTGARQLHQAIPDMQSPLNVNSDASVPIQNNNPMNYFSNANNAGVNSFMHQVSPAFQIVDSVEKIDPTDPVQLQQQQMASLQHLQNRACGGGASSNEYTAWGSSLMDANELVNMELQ
Outline: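 For the binding signal, per-feature fluorescence intensity was read in arbitrary units on an Axon 4000B scanner. Before scanning, a 2% BSA-blocked custom Agilent array made double-stranded with Cy5-dUTP was washed after 1 h at 25 °C with 200 nM protein and 50 µM zinc acetate. The proteins were Ni–NTA-purified transcription factors with N-terminal polyhistidine and DsRed fusions, expressed in E. coli BL21-CodonPlus.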

Sequence | binding signal
AACCAGCCACGTAGGCGCCACGTCAGCCAAAACTGCTATCCGGAGTCACCTAGTGCAG | 35900 fluorescence intensity (a.u.)
TTATAAATATTTCGATTGAATCATATCCTAAACAATCATACGGAGTCACCTAGTGCAG | 4660 fluorescence intensity (a.u.)
GGGCACGCGACGCGCCATGGCGTCGGCGGCGGAGGCGGTGCGGAGTCACCTAGTGCAG | 3280 fluorescence intensity (a.u.)
ACGAATGCATGTGTTACCAACAAGTAATGCGTAGTACGGTCGGAGTCACCTAGTGCAG | 5060 fluorescence intensity (a.u.)
CGCCGGCGCCGCCGAGCTCCACCGCTCCGATCCCACTCCGCGGAGTCACCTAGTGCAG | 6650 fluorescence intensity (a.u.)
TGCAAACATGTCATTGTCGGTGGGCCCATTCACACTTACCCGGAGTCACCTAGTGCAG | 3230 fluorescence intensity (a.u.)
GGTTTCTGGCCAACCGACGTCAAGGAAGAAAGGGCTCATGCGGAGTCACCTAGTGCAG | 3360 fluorescence intensity (a.u.)
ACGTTCGCGCGGAGCGTGACGTAGGCCGTCGTCTCGCACCCGGAGTCACCTAGTGCAG | 8420 fluorescence intensity (a.u.)
GGCGGGGCCCACACGCCACGCCACGCGGGCCCACCCGCCACGGAGTCACCTAGTGCAG | 4730 fluorescence intensity (a.u.)
AAATACAAAAGAAAATAGGAGAGGAGGGATACCAGGATTCCGGAGTCACCTAGTGCAG | 36100 fluorescence intensity (a.u.)
GGCGGCGGGCAGACGACTTGGAGCGGGAGACGGCGACGGGCGGAGTCACCTAGTGCAG | 3270 fluorescence intensity (a.u.)
GGAGTTGAAATCCAGAATTAACACATGCTCGTGGCGCTGCCGGAGTCACCTAGTGCAG | 3480 fluorescence intensity (a.u.)
GTGTACTTGTGAAAGCACGTATCCACCGCGTCAGTATATTCGGAGTCACCTAGTGCAG | 4070 fluorescence intensity (a.u.)
TAAAGTGTCATGAGGTGGCTGCTGATGTGGCATCAAGAATCGGAGTCACCTAGTGCAG | 6910 fluorescence intensity (a.u.)
CTTCAAGAAGGTTACGCTGACAGAACGGCGACAACGTCCGCGGAGTCACCTAGTGCAG | 3220 fluorescence intensity (a.u.)
GTGTGTGGATTAGTTGGAAGGATCAGTGCAATTATTGACTCGGAGTCACCTAGTGCAG | 3960 fluorescence intensity (a.u.)
TACAAAGCCGCGTGGCCCTCCACCTCCGCACGGGTCGCTCCGGAGTCACCTAGTGCAG | 3490 fluorescence intensity (a.u.)
GAGGCACCCGCGCTAGTACATAAAGCCACCGAGGTGCGATCGGAGTCACCTAGTGCAG | 3850 fluorescence intensity (a.u.)
TACTCTCGTACTGGTCATTGGGCGGTACACGTGTATCTTTCGGAGTCACCTAGTGCAG | 12900 fluorescence intensity (a.u.)
ACTGTTCAACGTCACGGAGGGCAGGGTCTCACCAACTCGCCGGAGTCACCTAGTGCAG | 3180 fluorescence intensity (a.u.)
GGCGACGGTGCACGCCGGCATGACGCTGGACCAGTGCAGGCGGAGTCACCTAGTGCAG | 3520 fluorescence intensity (a.u.)

An excerpt of these results, field by field:
AAATACAAAAGAAAATAGGAGAGGAGGGATACCAGGATTCCGGAGTCACCTAGTGCAG
  binding signal = 36100 fluorescence intensity (a.u.)
CTTCAAGAAGGTTACGCTGACAGAACGGCGACAACGTCCGCGGAGTCACCTAGTGCAG
  binding signal = 3220 fluorescence intensity (a.u.)

(continued)

Sequence | binding signal
AGCGGTTGGAGGTATGTCTTTCTCAGCCGGCTTGTAATCACGGAGTCACCTAGTGCAG | 3640 fluorescence intensity (a.u.)
CGTTCTAATCCGCAGTCAGTAGAAATCATGGGCAGTCTGCCGGAGTCACCTAGTGCAG | 3320 fluorescence intensity (a.u.)
ACGGCGGGAACAATTGTGGGCGGTGGCCTTGGCCGAATCGCGGAGTCACCTAGTGCAG | 55000 fluorescence intensity (a.u.)
TTGTTCCTACAGTGACAGGCTCTGACTGCAGGATGGAAGACGGAGTCACCTAGTGCAG | 24400 fluorescence intensity (a.u.)
AGGTTCGTGTGCTGATGTGGCAGCCTGACATGTGGGGCCCCGGAGTCACCTAGTGCAG | 20700 fluorescence intensity (a.u.)
ACATGGACAGAGATTACCACACGCCACCTCACCGCATCGTCGGAGTCACCTAGTGCAG | 9750 fluorescence intensity (a.u.)
AAACCACTCAAAGCAAGCAGTGAGTGAACGTGGCAGCTACCGGAGTCACCTAGTGCAG | 5480 fluorescence intensity (a.u.)
AGCTAGTACGGCTCGACGCCCTCCGCTTGCTCCATTGAGTCGGAGTCACCTAGTGCAG | 3260 fluorescence intensity (a.u.)
GAATCGAATGTGTGTCAAGTGAGAATACAAATATGATGTGCGGAGTCACCTAGTGCAG | 3930 fluorescence intensity (a.u.)
AACATCACCGTCATCAAGGCCACCGTCTCCGCCTCCGCCCCGGAGTCACCTAGTGCAG | 5910 fluorescence intensity (a.u.)
TGATATCTAAATGTTTGCTCATGTGCTATTTACAGCTCAGCGGAGTCACCTAGTGCAG | 3810 fluorescence intensity (a.u.)
ACGACGACGACCGTGACGCCGCCGACTGCTCCCTCCACTCCGGAGTCACCTAGTGCAG | 4250 fluorescence intensity (a.u.)
ACTCCATCATCAGTACATACTACATAGTCATCAATCATCACGGAGTCACCTAGTGCAG | 3580 fluorescence intensity (a.u.)
ATCAGGCACAATCACGGCGCGCCGTGGCCGAGGCATCATCCGGAGTCACCTAGTGCAG | 3620 fluorescence intensity (a.u.)
TATATATGCGGCACCACGCGGTCACGCACCCGCACGGGCACGGAGTCACCTAGTGCAG | 4850 fluorescence intensity (a.u.)
GTCATGCTTCTGCGCTGCGGTCTGCATTGTCACGACGGATCGGAGTCACCTAGTGCAG | 3940 fluorescence intensity (a.u.)
ACGGGGTGGCGTCACCATCGCATCTCCCAGATCCGCCTGTCGGAGTCACCTAGTGCAG | 11800 fluorescence intensity (a.u.)
AATGATAAATAGTGCAAGCAAAATATCAGAACCTCTTCTACGGAGTCACCTAGTGCAG | 3240 fluorescence intensity (a.u.)
CACCCTGGATGGGCCGGAATGTAGCATTTGCCATAGAAGGCGGAGTCACCTAGTGCAG | 24300 fluorescence intensity (a.u.)
GGCGCCGGCCAAATCGTACGTCACGGTCGCCTGAGCTGCGCGGAGTCACCTAGTGCAG | 6250 fluorescence intensity (a.u.)
AGGATTATGTTTTGTTATTAACTGTCACCACCGTTTCATACGGAGTCACCTAGTGCAG | 3180 fluorescence intensity (a.u.)

Look-ups from the entries so far:
Under binding signal, ACGAATGCATGTGTTACCAACAAGTAATGCGTAGTACGGTCGGAGTCACCTAGTGCAG shows 5060 fluorescence intensity (a.u.)
Under binding signal, GTCATGCTTCTGCGCTGCGGTCTGCATTGTCACGACGGATCGGAGTCACCTAGTGCAG shows 3940 fluorescence intensity (a.u.)
